# The supplement of paper PMC12819154, “High-throughput peptide-centric local stability assay extends protein–ligand identification to membrane proteins, tissues and bacteria” (Nature Structural & Molecular Biology, 2025)
# Amino acid sequences for entries named in this document (tags omitted). A change or cut given only in a name is not applied to a line headed by its entry.
# UniProt P19317: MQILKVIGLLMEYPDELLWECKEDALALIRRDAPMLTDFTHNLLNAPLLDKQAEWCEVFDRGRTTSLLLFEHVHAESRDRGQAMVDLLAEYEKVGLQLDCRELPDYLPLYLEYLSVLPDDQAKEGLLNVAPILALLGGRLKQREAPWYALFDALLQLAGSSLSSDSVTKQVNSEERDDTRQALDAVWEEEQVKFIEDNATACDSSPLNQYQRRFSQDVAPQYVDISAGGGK
# UniProt P10903: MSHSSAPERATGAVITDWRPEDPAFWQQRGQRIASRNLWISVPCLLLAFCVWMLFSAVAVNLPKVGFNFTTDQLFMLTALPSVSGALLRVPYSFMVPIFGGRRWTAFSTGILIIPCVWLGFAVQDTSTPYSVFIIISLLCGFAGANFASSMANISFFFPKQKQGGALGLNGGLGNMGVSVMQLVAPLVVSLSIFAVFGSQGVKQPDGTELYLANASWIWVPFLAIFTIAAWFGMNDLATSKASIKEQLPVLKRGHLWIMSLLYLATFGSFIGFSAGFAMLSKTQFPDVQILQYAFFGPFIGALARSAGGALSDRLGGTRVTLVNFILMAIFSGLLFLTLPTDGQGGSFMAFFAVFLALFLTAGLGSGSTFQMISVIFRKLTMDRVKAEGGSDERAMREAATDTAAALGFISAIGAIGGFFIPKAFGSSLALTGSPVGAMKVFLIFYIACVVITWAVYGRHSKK
# UniProt P0DMC5: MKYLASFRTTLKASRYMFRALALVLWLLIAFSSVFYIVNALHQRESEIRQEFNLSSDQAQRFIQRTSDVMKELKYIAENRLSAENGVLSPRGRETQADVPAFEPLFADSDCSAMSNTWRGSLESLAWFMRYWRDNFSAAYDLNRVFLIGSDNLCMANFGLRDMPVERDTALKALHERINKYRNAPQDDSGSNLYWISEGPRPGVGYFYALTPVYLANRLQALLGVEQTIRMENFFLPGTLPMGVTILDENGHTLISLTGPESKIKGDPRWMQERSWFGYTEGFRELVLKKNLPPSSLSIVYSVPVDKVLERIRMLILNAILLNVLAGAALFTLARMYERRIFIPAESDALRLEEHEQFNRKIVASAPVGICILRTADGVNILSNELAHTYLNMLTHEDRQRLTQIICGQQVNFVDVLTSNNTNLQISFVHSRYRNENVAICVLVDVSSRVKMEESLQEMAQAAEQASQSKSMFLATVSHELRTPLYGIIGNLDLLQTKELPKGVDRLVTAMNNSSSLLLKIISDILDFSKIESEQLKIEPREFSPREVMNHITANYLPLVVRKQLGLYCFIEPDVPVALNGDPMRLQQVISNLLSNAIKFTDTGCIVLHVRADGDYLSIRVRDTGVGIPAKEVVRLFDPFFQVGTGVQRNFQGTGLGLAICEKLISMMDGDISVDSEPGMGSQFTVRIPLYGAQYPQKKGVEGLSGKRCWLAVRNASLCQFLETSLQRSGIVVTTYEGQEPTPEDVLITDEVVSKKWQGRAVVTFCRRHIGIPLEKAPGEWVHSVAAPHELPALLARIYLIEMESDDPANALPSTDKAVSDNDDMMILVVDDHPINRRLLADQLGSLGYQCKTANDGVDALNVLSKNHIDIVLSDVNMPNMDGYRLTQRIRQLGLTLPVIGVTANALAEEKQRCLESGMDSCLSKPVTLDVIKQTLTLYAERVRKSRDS
# UniProt P10907: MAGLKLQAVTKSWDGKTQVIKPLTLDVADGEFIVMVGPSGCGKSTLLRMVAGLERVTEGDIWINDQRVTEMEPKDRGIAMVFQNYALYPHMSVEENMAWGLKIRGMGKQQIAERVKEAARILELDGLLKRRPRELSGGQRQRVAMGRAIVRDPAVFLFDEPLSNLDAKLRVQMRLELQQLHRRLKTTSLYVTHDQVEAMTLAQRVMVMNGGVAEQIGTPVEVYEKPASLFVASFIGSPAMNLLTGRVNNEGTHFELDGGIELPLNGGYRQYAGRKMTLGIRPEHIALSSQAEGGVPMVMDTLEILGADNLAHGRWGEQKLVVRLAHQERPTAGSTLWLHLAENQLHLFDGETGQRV
# UniProt P14900: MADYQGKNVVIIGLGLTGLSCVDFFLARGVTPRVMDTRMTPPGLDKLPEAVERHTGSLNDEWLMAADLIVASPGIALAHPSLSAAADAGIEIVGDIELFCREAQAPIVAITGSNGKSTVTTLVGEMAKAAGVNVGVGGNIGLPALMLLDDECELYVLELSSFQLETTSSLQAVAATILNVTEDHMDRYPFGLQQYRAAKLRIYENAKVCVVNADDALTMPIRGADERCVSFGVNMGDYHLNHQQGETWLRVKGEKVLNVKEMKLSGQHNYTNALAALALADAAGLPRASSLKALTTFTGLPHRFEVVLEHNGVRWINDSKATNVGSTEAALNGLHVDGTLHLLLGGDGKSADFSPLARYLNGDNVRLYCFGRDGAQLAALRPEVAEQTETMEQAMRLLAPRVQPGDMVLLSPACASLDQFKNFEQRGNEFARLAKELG
# UniProt P21499: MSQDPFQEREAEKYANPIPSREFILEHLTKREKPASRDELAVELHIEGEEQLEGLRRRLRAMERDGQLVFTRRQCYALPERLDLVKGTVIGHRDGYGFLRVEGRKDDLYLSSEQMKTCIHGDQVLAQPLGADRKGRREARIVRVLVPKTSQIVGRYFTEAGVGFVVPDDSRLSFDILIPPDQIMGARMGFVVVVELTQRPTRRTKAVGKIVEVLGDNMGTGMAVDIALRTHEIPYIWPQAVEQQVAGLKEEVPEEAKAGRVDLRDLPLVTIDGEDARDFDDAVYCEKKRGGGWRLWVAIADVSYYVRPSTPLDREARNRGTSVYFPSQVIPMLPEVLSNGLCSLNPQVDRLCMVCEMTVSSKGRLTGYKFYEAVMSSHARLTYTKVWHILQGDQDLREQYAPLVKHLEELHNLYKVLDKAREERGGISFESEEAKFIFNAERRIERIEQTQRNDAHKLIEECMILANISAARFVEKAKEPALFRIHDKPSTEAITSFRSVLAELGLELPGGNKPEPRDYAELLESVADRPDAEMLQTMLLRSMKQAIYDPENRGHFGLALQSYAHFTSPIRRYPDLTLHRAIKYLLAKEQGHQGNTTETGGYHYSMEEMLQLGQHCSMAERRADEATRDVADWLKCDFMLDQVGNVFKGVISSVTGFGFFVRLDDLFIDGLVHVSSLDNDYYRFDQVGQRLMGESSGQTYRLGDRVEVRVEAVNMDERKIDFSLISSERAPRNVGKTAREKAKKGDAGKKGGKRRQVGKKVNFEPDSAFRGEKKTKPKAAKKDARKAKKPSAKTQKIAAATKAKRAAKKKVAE
# UniProt P21893: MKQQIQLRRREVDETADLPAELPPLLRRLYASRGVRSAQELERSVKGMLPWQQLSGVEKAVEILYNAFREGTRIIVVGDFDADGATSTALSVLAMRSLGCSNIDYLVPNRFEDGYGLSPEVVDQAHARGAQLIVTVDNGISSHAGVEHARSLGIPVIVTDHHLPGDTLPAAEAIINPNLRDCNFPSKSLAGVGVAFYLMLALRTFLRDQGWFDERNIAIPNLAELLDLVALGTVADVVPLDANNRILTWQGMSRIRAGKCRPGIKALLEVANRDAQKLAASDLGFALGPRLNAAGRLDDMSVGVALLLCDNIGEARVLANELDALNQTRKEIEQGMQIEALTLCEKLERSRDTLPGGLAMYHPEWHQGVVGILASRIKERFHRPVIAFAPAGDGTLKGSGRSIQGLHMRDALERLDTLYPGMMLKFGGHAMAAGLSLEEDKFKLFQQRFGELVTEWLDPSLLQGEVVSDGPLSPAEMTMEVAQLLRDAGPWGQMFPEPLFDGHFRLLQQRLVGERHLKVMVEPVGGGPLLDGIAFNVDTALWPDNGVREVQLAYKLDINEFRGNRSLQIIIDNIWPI
# UniProt P0CF91: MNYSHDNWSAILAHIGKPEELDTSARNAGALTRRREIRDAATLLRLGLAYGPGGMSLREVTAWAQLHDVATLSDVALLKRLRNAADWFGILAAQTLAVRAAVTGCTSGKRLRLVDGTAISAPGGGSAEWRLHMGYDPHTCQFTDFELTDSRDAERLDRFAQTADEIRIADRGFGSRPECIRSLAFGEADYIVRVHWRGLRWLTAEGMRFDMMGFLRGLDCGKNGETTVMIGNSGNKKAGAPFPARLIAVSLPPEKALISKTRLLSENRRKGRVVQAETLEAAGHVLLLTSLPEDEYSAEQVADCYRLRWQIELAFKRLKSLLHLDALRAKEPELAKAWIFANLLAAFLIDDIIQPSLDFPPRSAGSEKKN
# UniProt P14375: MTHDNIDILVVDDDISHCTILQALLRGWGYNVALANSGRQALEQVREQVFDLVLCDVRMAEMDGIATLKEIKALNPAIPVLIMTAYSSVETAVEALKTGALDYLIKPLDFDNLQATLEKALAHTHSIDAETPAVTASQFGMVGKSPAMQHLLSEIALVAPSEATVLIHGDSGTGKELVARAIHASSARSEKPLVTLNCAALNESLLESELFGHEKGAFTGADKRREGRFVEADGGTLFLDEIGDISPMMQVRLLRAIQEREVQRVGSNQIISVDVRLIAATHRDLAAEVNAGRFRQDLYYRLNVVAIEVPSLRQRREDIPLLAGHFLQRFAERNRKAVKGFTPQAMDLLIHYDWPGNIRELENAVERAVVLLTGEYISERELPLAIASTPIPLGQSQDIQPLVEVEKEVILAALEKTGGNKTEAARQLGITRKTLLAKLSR
# UniProt P0CF66: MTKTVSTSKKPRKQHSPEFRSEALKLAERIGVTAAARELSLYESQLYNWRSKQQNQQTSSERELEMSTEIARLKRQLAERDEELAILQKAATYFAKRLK
# UniProt P16433: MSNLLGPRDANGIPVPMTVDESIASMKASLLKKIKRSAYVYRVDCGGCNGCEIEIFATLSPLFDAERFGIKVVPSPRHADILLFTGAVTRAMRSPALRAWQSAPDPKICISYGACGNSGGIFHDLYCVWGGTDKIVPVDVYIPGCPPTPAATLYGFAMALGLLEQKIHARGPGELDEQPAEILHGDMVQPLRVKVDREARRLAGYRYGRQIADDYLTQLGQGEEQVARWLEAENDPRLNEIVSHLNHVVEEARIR
# UniProt P13669: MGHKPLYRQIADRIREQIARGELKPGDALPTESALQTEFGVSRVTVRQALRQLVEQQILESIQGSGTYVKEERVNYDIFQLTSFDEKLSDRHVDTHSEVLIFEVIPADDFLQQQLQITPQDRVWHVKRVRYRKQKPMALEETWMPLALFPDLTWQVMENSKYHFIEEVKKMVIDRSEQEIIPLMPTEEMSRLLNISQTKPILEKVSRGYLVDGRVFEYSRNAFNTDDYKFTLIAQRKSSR
# UniProt P21599: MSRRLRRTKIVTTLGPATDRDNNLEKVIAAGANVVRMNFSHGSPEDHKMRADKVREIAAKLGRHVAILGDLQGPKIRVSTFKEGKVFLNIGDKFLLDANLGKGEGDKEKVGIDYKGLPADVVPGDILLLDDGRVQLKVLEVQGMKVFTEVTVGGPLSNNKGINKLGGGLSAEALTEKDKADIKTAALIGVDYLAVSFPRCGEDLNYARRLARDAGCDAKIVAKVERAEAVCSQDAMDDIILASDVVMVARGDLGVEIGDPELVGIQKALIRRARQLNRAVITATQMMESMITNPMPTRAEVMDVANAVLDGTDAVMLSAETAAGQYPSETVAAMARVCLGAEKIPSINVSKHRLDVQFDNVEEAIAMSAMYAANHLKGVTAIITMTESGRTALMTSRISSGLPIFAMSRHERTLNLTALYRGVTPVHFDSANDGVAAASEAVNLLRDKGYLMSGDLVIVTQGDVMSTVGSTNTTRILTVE
# UniProt P11868: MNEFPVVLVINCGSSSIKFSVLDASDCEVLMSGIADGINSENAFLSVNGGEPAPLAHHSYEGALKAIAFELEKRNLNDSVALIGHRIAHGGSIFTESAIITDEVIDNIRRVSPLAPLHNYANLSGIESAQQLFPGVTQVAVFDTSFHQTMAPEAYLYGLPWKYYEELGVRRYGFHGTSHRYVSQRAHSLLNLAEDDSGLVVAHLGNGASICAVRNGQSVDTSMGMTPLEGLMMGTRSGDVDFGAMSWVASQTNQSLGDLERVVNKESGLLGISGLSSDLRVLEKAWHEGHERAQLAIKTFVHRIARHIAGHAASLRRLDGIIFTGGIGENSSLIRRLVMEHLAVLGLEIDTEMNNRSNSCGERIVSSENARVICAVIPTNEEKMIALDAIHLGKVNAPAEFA
# UniProt P23837: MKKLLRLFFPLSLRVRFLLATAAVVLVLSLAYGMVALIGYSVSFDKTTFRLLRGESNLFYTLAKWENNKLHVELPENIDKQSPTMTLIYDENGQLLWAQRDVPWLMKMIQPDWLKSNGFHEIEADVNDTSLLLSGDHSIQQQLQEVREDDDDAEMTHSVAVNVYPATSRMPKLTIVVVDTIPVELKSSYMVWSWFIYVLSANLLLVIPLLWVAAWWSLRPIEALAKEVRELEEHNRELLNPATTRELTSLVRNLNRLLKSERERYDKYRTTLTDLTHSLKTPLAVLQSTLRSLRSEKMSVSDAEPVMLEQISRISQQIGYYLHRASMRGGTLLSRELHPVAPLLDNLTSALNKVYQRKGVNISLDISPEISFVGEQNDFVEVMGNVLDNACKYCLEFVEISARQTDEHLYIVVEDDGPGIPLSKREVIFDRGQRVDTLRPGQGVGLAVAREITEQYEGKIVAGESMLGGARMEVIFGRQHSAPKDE
# Some of the results follow. Small differences around the control level are noise.
# Compound: CC1(C)S[C@@H]2[C@H](NC(=O)[C@H](N)c3ccccc3)C(=O)N2[C@H]1C(=O)O [ampicillin]
# Experiment: log2 fold change of tryptic peptide abundance, ligand vs vehicle (limited proteolysis) (log2 ratio); higher = more trypsin-susceptible (destabilized)
# Settings: ligand concentration: 10 uM; sample: E. coli crude lysate
row,Target,log2 fold change
1,"UniProt P23843 (peptide sequence: LGMDRDIIVNKVK, peptide start residue: 321)",-0.596
2,"UniProt P13000 (peptide sequence: NSDALALQR, peptide start residue: 53)",-0.0808
3,"UniProt P19317 (peptide sequence: TTSLLLFEHVHAESR, peptide start residue: 64)",-1.11
4,"UniProt P23839 (peptide sequence: RLDFMMQEFNR, peptide start residue: 241)",-0.188
5,"UniProt P23883 (peptide sequence: DAGDSNMKR, peptide start residue: 255)",0.488
6,"UniProt P14407 (peptide sequence: LKELIDAGK, peptide start residue: 400)",-0.24
7,"UniProt P15078 (peptide sequence: HNDGLDYVPTDKK, peptide start residue: 74)",0.0413
8,"UniProt P24175 (peptide sequence: LAQPVEAINRVEQHFSR, peptide start residue: 383)",-0.125
9,"UniProt P10903 (peptide sequence: VKAEGGSDER, peptide start residue: 385)",0.234
10,"UniProt P21169 (peptide sequence: DVAPEKADLPRPYR, peptide start residue: 263)",-0.502
11,"UniProt P0DMC5 (peptide sequence: SMFLATVSHELR, peptide start residue: 471)",0.294
12,"UniProt P10907 (peptide sequence: LKTTSLYVTHDQVEAMTLAQR, peptide start residue: 184)",-0.222
13,"UniProt P23857 (peptide sequence: EILSEMGYTHVENAGGLKDIAMPK, peptide start residue: 78)",-0.174
14,"UniProt P13857 (peptide sequence: NGFILEGCLK, peptide start residue: 148)",-0.0994
15,"MurD (peptide sequence: STVTTLVGEMAK, peptide start residue: 117) (UniProt P14900)",0.546
16,"UniProt P21499 (peptide sequence: VEAVNMDER, peptide start residue: 710)",-0.506
17,"UniProt P24171 (peptide sequence: AQQATLLGFPHYAAWK, peptide start residue: 270)",-0.361
18,"UniProt P21829 (peptide sequence: FALTHDDLPQLQHFGK, peptide start residue: 158)",0.0709
19,"UniProt P21893 (peptide sequence: KEIEQGMQIEALTLCEKLER, peptide start residue: 330)",-0.82
20,"UniProt P0CF91 (peptide sequence: FDMMGFLR, peptide start residue: 209)",-0.51
21,"UniProt P15254 (peptide sequence: DNPEMERR, peptide start residue: 473)",-0.699
22,"UniProt P14375 (peptide sequence: VGSNQIISVDVR, peptide start residue: 265)",0.156
23,"UniProt P0CF66 (peptide sequence: SKQQNQQTSSERELEMSTEIAR, peptide start residue: 51)",-0.706
24,"UniProt P16433 (peptide sequence: WLEAENDPR, peptide start residue: 229)",-0.291
25,"UniProt P13669 (peptide sequence: YHFIEEVKK, peptide start residue: 162)",0.259
26,"UniProt P11553 (peptide sequence: ASELLLVGGGSR, peptide start residue: 392)",-0.368
27,"UniProt P21599 (peptide sequence: LGGGLSAEALTEKDK, peptide start residue: 165)",0.5
28,"UniProt P21363 (peptide sequence: SVIKDSMSK, peptide start residue: 68)",-0.077
29,"UniProt P11868 (peptide sequence: YYEELGVRR, peptide start residue: 163)",-0.401
30,"UniProt P23837 (peptide sequence: QHSAPKDE, peptide start residue: 479)",0.26

# Some of the entries so far, bar-delimited.
row | Target | log2 fold change
22 | UniProt P14375 (peptide sequence: VGSNQIISVDVR, peptide start residue: 265) | 0.156
23 | UniProt P0CF66 (peptide sequence: SKQQNQQTSSERELEMSTEIAR, peptide start residue: 51) | -0.706
